PubChem BioAssay AID330 (DTP/NCI, 2004)
The list does not hold the whole screen: it is rich in T/C values a quarter to a half above the control, in often repeated tests (any T/C) and in doses without a T/C. Further doses and runs are listed elsewhere. T/C: endpoint of the treated group in % of that of the vehicle group. Some doses have a count of surviving animals in place of a T/C: the source holds a T/C of zero for them, seemingly a mark for toxic or unscored doses. Some survivor counts are full or nearly so, which does not show that the dose was tolerated: survival well below the control is almost never listed, so the zero probably covers shortened survival too. Counts of survivors are from the toxicity check (mostly the fifth day) where no day follows; animals may have died later. Schedule codes are those of the source, read here as Q, the interval in days (D) or hours (H), X, the number of doses. For survival time, the PubChem record calls one and a half times the control and up active, and a quarter to a half above the control has no call in these data; cut-offs in other NCI protocols can differ. Some doses were run more than once; the results are listed from low to high. Some T/C values are followed by the survivors on the day toxicity was checked, most often the fifth; where none is given, no animal had died by that day.

System: P388 leukemia ip, CD2F1 mice, survival T/C
Assay: NCI In Vivo Anticancer Drug Screen. Data for tumor model P388 Leukemia (intraperitoneal) in CD2F1 (CDF1) mice
Conditions: T/C endpoint: median survival time, higher T/C = longer survival
[1] = dose: 200.0 mg/kg/injection, schedule: Q01DX005 (ip), vehicle: saline with Tween-80
[2] = dose: 400.0 mg/kg/injection, schedule: Q04DX002 (ip), vehicle: Klucel (hydroxypropylcellulose) (HPC)
[3] = dose: 100.0 mg/kg/injection, schedule: Q01DX009 (ip), vehicle: Klucel (hydroxypropylcellulose) (HPC)
[4] = dose: 12.5 mg/kg/injection, schedule: Q01DX009 (ip), vehicle: Klucel (hydroxypropylcellulose) (HPC)
[5] = dose: 25.0 mg/kg/injection, schedule: Q01DX009 (ip), vehicle: Klucel (hydroxypropylcellulose) (HPC)
[6] = dose: 50.0 mg/kg/injection, schedule: Q01DX009 (ip), vehicle: Klucel (hydroxypropylcellulose) (HPC)
[7] = dose: 200.0 mg/kg/injection, schedule: Q01DX009 (ip), vehicle: Klucel (hydroxypropylcellulose) (HPC)
[8] = dose: 200.0 mg/kg/injection, schedule: Q04DX003 (ip), vehicle: saline with Tween-80
[9] = dose: 400.0 mg/kg/injection, schedule: Q04DX003 (ip), vehicle: saline with Tween-80
[10] = dose: 3.12 mg/kg/injection, schedule: Q01DX009 (ip), vehicle: Klucel (hydroxypropylcellulose) (HPC)
[11] = dose: 6.25 mg/kg/injection, schedule: Q01DX009 (ip), vehicle: Klucel (hydroxypropylcellulose) (HPC)

COc1cccc2c1C(=O)c1c(O)c3c(c(O)c1C2=O)C[C@@](O)(/C(C)=N/NC(=O)c1ccc(S(N)(=O)=O)cc1)C[C@@H]3OC1CC(N)C(O)C(C)O1 (stereo partly drawn)
T/C (dose: 0.38 mg/kg/injection, schedule: Q01DX009 (ip), vehicle: water): 136 % of control
T/C (dose: 0.39 mg/kg/injection, schedule: Q01DX009 (ip), vehicle: water): 141 % of control
T/C (dose: 0.78 mg/kg/injection, schedule: Q01DX009 (ip), vehicle: water): 133 % of control
T/C (dose: 1.56 mg/kg/injection, schedule: Q01DX009 (ip), vehicle: water): 140 % of control
T/C (dose: 18.8 mg/kg/injection, schedule: Q04DX003 (ip), vehicle: water): 135 % of control [5 of 6 alive]
survivor count (dose: 25.0 mg/kg/injection, schedule: Q01DX009 (ip), vehicle: water): 6 of 6
T/C (dose: 37.5 mg/kg/injection, schedule: Q04DX003 (ip), vehicle: water): 145 % of control
T/C (dose: 50.0 mg/kg/injection, schedule: Q01DX001 (ip), vehicle: water): 132 % of control
T/C (dose: 75.0 mg/kg/injection, schedule: Q04DX003 (ip), vehicle: water): 133 % of control
survivor count (dose: 100.0 mg/kg/injection, schedule: Q01DX001 (ip), vehicle: water): 5 of 6
survivor count (dose: 200.0 mg/kg/injection, schedule: Q01DX001 (ip), vehicle: water): 0 of 6
survivor count (dose: 400.0 mg/kg/injection, schedule: Q01DX001 (ip), vehicle: water): 0 of 6

Oc1ccc(/C=N/N=C/c2ccc(O)c(O)c2)cc1O
T/C (dose: 50.0 mg/kg/injection, schedule: Q01DX005 (ip), vehicle: saline with Tween-80): 128 % of control
T/C [1]: 128 % of control

COc1cc(COC(=O)c2ccc(CSc3ccc(Cl)cc3)o2)cc(OC)c1OC
survivor count [1]: 6 of 6

COC(=O)c1cc2c(C(=O)OC)cc1CSCc1cccc(c1)CSC2
survivor count (dose: 50.0 mg/kg/injection, schedule: Q01DX009 (ip), vehicle: suspension in saline): 6 of 6
survivor count (dose: 100.0 mg/kg/injection, schedule: Q01DX009 (ip), vehicle: suspension in saline): 6 of 6
survivor count (dose: 200.0 mg/kg/injection, schedule: Q01DX009 (ip), vehicle: suspension in saline): 6 of 6

OCC[N+]12CN3CN(CN(C3)C1)C2
T/C (dose: 400.0 mg/kg/injection, schedule: Q01DX009 (ip), vehicle: saline): 126 and 142 % of control
T/C (dose: 600.0 mg/kg/injection, schedule: Q01DX009 (ip), vehicle: saline): 136 % of control

CC1(C)CC(=O)N(CN2CCCCC2)C(=O)C1
survivor count [2]: 3 of 6

CCS(=O)(=O)OCCCNCCCOS(=O)(=O)CC
T/C (dose: 50.0 mg/kg/injection, schedule: Q01DX001 (ip), vehicle: saline): 136 % of control
survivor count (dose: 400.0 mg/kg/injection, schedule: Q04DX003 (ip), vehicle: saline): 5 of 6
survivor count (dose: 800.0 mg/kg/injection, schedule: Q01DX001 (ip), vehicle: saline): 2 of 6

Cc1nc(C)c2c(C)[nH]c(-c3ccccc3)c2n1
survivor count (dose: 100.0 mg/kg/injection, schedule: Q04DX002 (ip), vehicle: Klucel (hydroxypropylcellulose) (HPC)): 0 of 6
survivor count [2]: 6 of 6

COc1cccc2c1C(=O)c1c(O)c3c(c(O)c1C2=O)C[C@@](O)(C(=O)CO)C[C@@H]3OC1CC(NC=O)C(O)C(C)O1 (stereo partly drawn)
T/C (dose: 1.56 mg/kg/injection, schedule: Q01DX009 (ip), vehicle: Klucel (hydroxypropylcellulose) (HPC)): 130 % of control [4 of 6 alive]

O=C(O)c1ccccc1SCCO
survivor count [3]: 3 of 6

CC(=O)OC1C2(CC3N4C(=O)C5(CO)SSC4(CC31O)C(=O)N5C)OC(C)C(C)(C)C2=O (stereo not drawn)
survivor count (dose: 1.25 mg/kg/injection, schedule: Q01DX009 (ip), vehicle: saline with Tween-80): 5 of 6
survivor count (dose: 2.5 mg/kg/injection, schedule: Q01DX009 (ip), vehicle: saline with Tween-80): 5 of 6
survivor count (dose: 2.5 mg/kg/injection, schedule: Q01DX009 (ip), vehicle: saline): 6 of 6
survivor count (dose: 5.0 mg/kg/injection, schedule: Q01DX009 (ip), vehicle: saline with Tween-80): 1 of 6
survivor count (dose: 5.0 mg/kg/injection, schedule: Q01DX009 (ip), vehicle: saline): 0 of 6
survivor count (dose: 6.25 mg/kg/injection, schedule: Q01DX009 (oral), vehicle: saline): 2 of 6
survivor count (dose: 10.0 mg/kg/injection, schedule: Q01DX009 (ip), vehicle: saline with Tween-80): 2 of 6
survivor count (dose: 10.0 mg/kg/injection, schedule: Q01DX009 (ip), vehicle: saline): 0 of 6
survivor count (dose: 25.0 mg/kg/injection, schedule: Q01DX009 (oral), vehicle: saline): 0 of 6

C=CCC(C(=O)OCCN(CC)CC)(c1ccccc1)c1ccccc1
survivor count (dose: 0.75 mg/kg/injection, schedule: Q01DX009 (ip), vehicle: saline): 6 of 6
survivor count (dose: 1.5 mg/kg/injection, schedule: Q01DX009 (ip), vehicle: saline): 6 of 6
survivor count (dose: 3.0 mg/kg/injection, schedule: Q01DX009 (ip), vehicle: saline): 6 of 6
survivor count (dose: 6.0 mg/kg/injection, schedule: Q01DX009 (ip), vehicle: saline): 6 of 6
survivor count (dose: 12.0 mg/kg/injection, schedule: Q01DX009 (ip), vehicle: saline): 6 of 6

CNC(=O)OCc1c(COC(=O)NC)c(-c2ccc(OC)cc2)n2c1CCC2
T/C [4]: 132 % of control
T/C [5]: 132 % of control
T/C [6]: 127 and 131 % of control
T/C [3]: 125 and 129 % of control
survivor count [7]: 5 of 6

Nc1nc(-c2cccnc2)cc2ccccc12
survivor count (dose: 100.0 mg/kg/injection, schedule: Q04DX003 (ip), vehicle: saline with Tween-80): 0 of 6
survivor count [8]: 0 of 6
survivor count [9]: 0 of 6

CC(C)(C)COSc1ccccc1
survivor count [8]: 0 of 6
survivor count [9]: 0 of 6

[F][Sn]([F])([c]1ccccc1)[c]1ccccc1
T/C (dose: 0.78 mg/kg/injection, schedule: Q01DX009 (ip), vehicle: Klucel (hydroxypropylcellulose) (HPC)): 149 % of control
T/C [10]: 144 % of control
survivor count [10]: 0 of 6
T/C [11]: 144 % of control
survivor count [11]: 0 of 6
survivor count [4]: 1 of 6
survivor count [5]: 6 of 6
survivor count [6]: 0 of 6
survivor count [3]: 1 of 6
survivor count [7]: 0 of 6

Cc1nn(C)c(NC(=O)c2ccccc2O)c1SC#N
survivor count (dose: 50.0 mg/kg/injection, schedule: Q04DX002 (ip), vehicle: saline with Tween-80): 0 of 6
survivor count (dose: 100.0 mg/kg/injection, schedule: Q04DX002 (ip), vehicle: saline with Tween-80): 0 of 6
survivor count (dose: 200.0 mg/kg/injection, schedule: Q04DX002 (ip), vehicle: saline with Tween-80): 0 of 6

COc1cc([C@@H]2c3cc4c(cc3[C@H](O)[C@H]3COC(=O)[C@@H]23)OCO4)cc(OC)c1OC
T/C (dose: 15.0 mg/kg/injection, schedule: Q01DX010 (ip), vehicle: saline): 127 % of control
survivor count (dose: 60.0 mg/kg/injection, schedule: Q01DX010 (ip), vehicle: saline): 2 of 6
survivor count (dose: 120.0 mg/kg/injection, schedule: Q01DX010 (ip), vehicle: saline): 2 of 6
